T1: ASC (mouse (endogenous in BMDMs)) (UniProt Q9EPB4)
T1 sequence: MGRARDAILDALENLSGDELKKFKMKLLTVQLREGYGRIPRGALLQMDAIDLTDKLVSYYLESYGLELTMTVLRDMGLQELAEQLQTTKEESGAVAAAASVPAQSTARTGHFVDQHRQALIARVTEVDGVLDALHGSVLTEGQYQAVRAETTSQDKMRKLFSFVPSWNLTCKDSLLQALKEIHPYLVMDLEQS

The chains behind the UniProt entries cited, without tags or fusion partners.
UniProt Q9QZL0: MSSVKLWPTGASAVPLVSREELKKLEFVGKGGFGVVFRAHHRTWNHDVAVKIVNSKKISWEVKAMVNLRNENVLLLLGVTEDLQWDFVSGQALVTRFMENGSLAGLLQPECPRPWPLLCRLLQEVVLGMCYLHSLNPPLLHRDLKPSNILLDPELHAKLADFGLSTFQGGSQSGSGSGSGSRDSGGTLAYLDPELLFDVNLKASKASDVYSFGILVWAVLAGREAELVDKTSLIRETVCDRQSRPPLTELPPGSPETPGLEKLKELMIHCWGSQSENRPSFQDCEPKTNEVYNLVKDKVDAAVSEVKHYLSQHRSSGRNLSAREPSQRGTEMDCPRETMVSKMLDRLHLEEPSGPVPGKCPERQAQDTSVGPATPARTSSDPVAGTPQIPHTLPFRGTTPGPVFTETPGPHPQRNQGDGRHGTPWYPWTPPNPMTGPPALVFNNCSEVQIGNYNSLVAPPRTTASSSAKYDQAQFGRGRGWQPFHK

B1: FADD (protein, UniProt Q61160 1-205)
chain: MDPFLVLLHSLSGSLSGNDLMELKFLCRERVSKRKLERVQSGLDLFTVLLEQNDLERGHTGLLRELLASLRRHDLLQRLDDFEAGTATAAPPGEADLQVAFDIVCDNVGRDWKRLARELKVSEAKMDGIEEKYPRSLSERVRESLKVWKNAEKKNASVAGLVKALRTCRLNLVADLVEEAQESVSKSENMSPVLRDSTVSSSETP
B2: Pyrin (protein, UniProt Q9JJ26 1-767)
chain: MAKTLGDHLLNTLEELLPYDFEKFKFKLQNTSLEKGHSKIPRGHMQMARPVKLASLLITYYGEEYAVRLTLQILRATNQRQLAEELRKATGTEHLIEENRVGGSVQSSVENKAKSVKVPDVPEGDGTQQNNDESDTLPSSQAEVGKGPQKKSLTKRKDQRGPESLDSQTKPWTRSTAPLYRRTQGTQSPGDKESTASAQLRRNVSSAGRLQGLYNNAPGRRESKKAEVYVYLPSGKKRPRSLEITTYSREGEPPNSEVLPTQEETRNGSLIRMRTATLNGRTTGALEKGTGIPEHSMVLDEKTFRNMSSKTSLIGEERCPTSWTENGNGSPETTESSGETAGSILSDPEVPLSLCEKPAKTPEDPASLGQAACEGRSQDKAVCPLCHTQEGDLRGDTCVQSSCSCSIAPGDPKASGRCSICFQCQGLLARKSCEAQSPQSLPQCPRHMKQVLLLFCEDHREPICLICRLSLEHQGHRVRPIEEAALEYKEQIREQLERLREMRGYVEEHRLQGDKKTDDFLKQTEIQKQKISCPLEKLYQLLEKQEQLFVTWLQELSQTISKVRETYYTRVSLLDEMIEELEAKQDQPEWDLMQDIGITLHRAKMMSASELLDTPPGVKEKLHLLYQKSKSVEKNMQCFSEMLSSEMAFSASDVAKWEGRQPSATQVQGLVPTVHLKCDGAHTQDCDVVFYPEREAGGSEPKDYLHPQPAQDTPELHEIHSRNNKRKFKSFLKWKPSFSRTDWRLRTCCYRDLDQAAAHPNLIFSMI
B3: caspase-8 (protein, UniProt O89110 1-480)
chain: MDFQSCLYAIAEELGSEDLAALKFLCLDYIPHKKQETIEDAQKLFLRLREKGMLEEGNLSFLKELLFHISRWDLLVNFLDCNREEMVRELRDPDNAQISPYRVMLFKLSEEVSELELRSFKFLLNNEIPKCKLEDDLSLLEIFVEMEKRTMLAENNLETLKSICDQVNKSLLGKIEDYERSSTERRMSLEGREELPPSVLDEMSLKMAELCDSPREQDSESRTSDKVYQMKNKPRGYCLIINNHDFSKAREDITQLRKMKDRKGTDCDKEALSKTFKELHFEIVSYDDCTANEIHEILEGYQSADHKNKDCFICCILSHGDKGVVYGTDGKEASIYDLTSYFTGSKCPSLSGKPKIFFIQACQGSNFQKGVPDEAGFEQQNHTLEVDSSSHKNYIPDEADFLLGMATVKNCVSYRDPVNGTWYIQSLCQSLRERCPQGDDILSILTGVNYDVSNKDDRRNKGKQMPQPTFTLRKKLFFPP

No constants are given. Whether binding was seen depends on the method and setting. In cells and extracts the contact can be indirect.

This assay addresses T1, ASC (mouse (endogenous in BMDMs)). Kind of assay: condition: only after poly(dA:dT) transfection instead of infection; co-IP; anti-ASC antibody with protein A/G agarose from lysates of WT BMDMs after poly(dA:dT) transfection instead of infection; 20 mM Tris-HCl pH 7.4, 100 mM NaCl, 30 mM KCl, 0.1% NP-40; immunoblot.
For RIPK3 (from UniProt Q9QZL0 1-486), the binding entry is listed as “no binding”.
With B1, the binding result is listed as “no binding”.
In the case of B2, the binding entry is “no binding”.
With B3, the binding entry is given as “no binding”.

(Values after PMC8603942.)
